{
  "sequences": {"note": "The chains behind the UniProt entries cited, without tags or fusion partners.", "UniProt Q7Z434": "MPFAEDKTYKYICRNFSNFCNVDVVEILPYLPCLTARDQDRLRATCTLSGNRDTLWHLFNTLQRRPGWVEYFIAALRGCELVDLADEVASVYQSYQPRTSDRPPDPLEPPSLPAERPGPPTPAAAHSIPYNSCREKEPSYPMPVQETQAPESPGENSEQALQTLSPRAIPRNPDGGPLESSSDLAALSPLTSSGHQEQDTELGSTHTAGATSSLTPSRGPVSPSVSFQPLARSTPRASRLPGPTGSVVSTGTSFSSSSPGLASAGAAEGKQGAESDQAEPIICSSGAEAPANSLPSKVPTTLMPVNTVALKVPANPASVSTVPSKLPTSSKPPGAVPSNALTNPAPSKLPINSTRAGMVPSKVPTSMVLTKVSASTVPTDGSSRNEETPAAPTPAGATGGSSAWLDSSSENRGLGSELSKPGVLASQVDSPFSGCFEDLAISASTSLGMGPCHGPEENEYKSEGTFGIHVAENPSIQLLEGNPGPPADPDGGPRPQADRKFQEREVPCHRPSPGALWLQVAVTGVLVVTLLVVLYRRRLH", "UniProt F5HF68": "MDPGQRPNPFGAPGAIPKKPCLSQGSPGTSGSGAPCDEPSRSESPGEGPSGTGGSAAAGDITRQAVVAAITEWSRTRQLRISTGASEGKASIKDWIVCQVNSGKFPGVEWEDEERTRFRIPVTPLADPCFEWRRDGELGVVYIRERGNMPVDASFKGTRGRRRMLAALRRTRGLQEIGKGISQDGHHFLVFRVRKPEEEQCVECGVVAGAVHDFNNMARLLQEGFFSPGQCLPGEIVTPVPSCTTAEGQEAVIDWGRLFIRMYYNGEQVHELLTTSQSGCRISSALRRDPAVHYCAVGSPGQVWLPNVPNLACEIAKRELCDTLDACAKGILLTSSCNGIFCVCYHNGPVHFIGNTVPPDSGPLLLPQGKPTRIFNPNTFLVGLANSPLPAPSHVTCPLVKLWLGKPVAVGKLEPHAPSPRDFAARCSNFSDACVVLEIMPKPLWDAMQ"},
  "source": "paper PMC8817016",
  "key": {"[1]": {"target": "Flag-MAVS (UniProt Q7Z434)", "assay": "co-IP; total-cell extracts of 293T cells (wild type or MAVS KO) co-transfected with vIRF-1, TUFM-V5 and/or Flag-MAVS for 24 h; anti-V5 immunoprecipitation (Fig. 1F), bait of Fig. 1G and 1H not told; RIPA-B buffer lacking SDS"}, "[2]": {"target": "T1, GST-TPPP3 (UniProt Q9BW30)", "T1 sequence": "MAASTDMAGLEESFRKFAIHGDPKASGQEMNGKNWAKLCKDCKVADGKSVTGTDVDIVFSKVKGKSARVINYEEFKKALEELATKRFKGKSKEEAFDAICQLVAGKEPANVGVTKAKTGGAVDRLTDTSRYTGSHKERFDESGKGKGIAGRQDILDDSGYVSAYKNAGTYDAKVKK", "assay": "pull-down; GST or GST-fusion protein (1 µg) on glutathione sepharose-4B beads incubated with purified vIRF-1-T7 at 4 °C overnight in PBS plus 1% Triton X-100; vIRF-1 detected by anti-vIRF-1 antibody; both purified"}, "[3]": {"target": "T2, ATP synthase γ, endogenous in mDRM of iBCBL-1 cells (human (endogenous in iBCBL-1)) (UniProt P36542)", "T2 sequence": "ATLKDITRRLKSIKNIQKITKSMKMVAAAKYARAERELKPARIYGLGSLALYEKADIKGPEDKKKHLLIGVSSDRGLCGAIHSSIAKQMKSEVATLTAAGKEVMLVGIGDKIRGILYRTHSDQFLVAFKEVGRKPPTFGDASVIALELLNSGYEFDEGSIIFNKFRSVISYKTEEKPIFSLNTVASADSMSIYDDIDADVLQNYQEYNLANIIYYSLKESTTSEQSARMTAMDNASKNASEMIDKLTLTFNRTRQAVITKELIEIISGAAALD", "assay": "far-Western, overlay or dot blot; mDRM proteins of iBCBL-1 cells (Dox 2 days) separated by 2D gel electrophoresis, transferred to PVDF, blocked with 5% nonfat dry milk in TBS-T, incubated with 1 µg/ml purified vIRF-1-T7 or EGFP-T7 for 3 h at room temperature; HRP-conjugated anti-T7 antibody; reactive spots identified by MALDI-TOF mass spectrometry; only the binder purified"}, "[4]": {"target": "T3, trifunctional enzyme subunit β, endogenous in mDRM of iBCBL-1 cells (human (endogenous in iBCBL-1)) (UniProt P55084)", "T3 sequence": "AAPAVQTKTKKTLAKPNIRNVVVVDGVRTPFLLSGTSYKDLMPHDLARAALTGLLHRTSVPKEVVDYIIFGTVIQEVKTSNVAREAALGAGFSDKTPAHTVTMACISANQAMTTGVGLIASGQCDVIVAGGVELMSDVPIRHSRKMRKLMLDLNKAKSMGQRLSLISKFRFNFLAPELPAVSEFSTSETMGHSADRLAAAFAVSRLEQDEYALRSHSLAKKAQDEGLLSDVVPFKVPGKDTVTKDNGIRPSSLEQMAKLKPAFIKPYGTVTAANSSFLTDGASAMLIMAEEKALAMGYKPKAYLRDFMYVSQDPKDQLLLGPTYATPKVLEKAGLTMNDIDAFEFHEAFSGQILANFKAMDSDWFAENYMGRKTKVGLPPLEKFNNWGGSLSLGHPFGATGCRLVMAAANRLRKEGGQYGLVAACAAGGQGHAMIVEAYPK", "assay": "far-Western, overlay or dot blot; mDRM proteins of iBCBL-1 cells (Dox 2 days) separated by 2D gel electrophoresis, transferred to PVDF, blocked with 5% nonfat dry milk in TBS-T, incubated with 1 µg/ml purified vIRF-1-T7 or EGFP-T7 for 3 h at room temperature; HRP-conjugated anti-T7 antibody; reactive spots identified by MALDI-TOF mass spectrometry; only the binder purified"}, "[5]": {"target": "T4, tubulin polymerization promoting protein 3 (TPPP3), endogenous in mDRM of iBCBL-1 cells (human (endogenous in iBCBL-1)) (UniProt Q9BW30)", "T4 sequence": "T1 sequence", "assay": "far-Western, overlay or dot blot; mDRM proteins of iBCBL-1 cells (Dox 2 days) separated by 2D gel electrophoresis, transferred to PVDF, blocked with 5% nonfat dry milk in TBS-T, incubated with 1 µg/ml purified vIRF-1-T7 or EGFP-T7 for 3 h at room temperature; HRP-conjugated anti-T7 antibody; reactive spots identified by MALDI-TOF mass spectrometry; only the binder purified"}},
  "note": "Results are given in words; binding and its absence hold for the method and conditions named. For some assays here: In cells and extracts the contact can be indirect. Some results given as binding are weak or reduced against the parent protein; the word gives no strength. For some assays here: Where a sequence is shown, tags or fusion partners need not be part of it.",
  "data": [
    {"substance": "vIRF-1, transfected in 293T cells (from UniProt F5HF68 1-449)", "values": [
      {"measurement": "binding", "setting": "[1]", "result": "binds"}
    ]},
    {"substance": "vIRF-1-T7 (viral IFN regulatory factor 1 of human herpesvirus 8, T7-tagged, purified recombinant) (from UniProt F5HF68 1-449)", "values": [
      {"measurement": "binding", "setting": "[2]", "result": "binds"},
      {"measurement": "binding", "setting": "[3]", "result": "binds"},
      {"measurement": "binding", "setting": "[4]", "result": "binds"},
      {"measurement": "binding", "setting": "[5]", "result": "binds"}
    ]}
  ]
}
